The values below come from patent publication CN112300289A.

For this test, the target named is TNFα. The experiment in a line: concluded from the L929 cytotoxicity assay; no direct binding assay.

These are yes or no findings as the source states them, for the method shown. Binding can be weak; no strength is given. Where a sequence is shown, tags or fusion partners need not be part of it.

B1: RGD4C融合抗TNFα纳米抗体 N端-VHH-Linker-RGD4C-6HIS-C端 (VHH)
VHH: QVQLVESGGGLVQAGGSLRLSCTASGQTSSTADMGWFRQPPGKGREFVARISGIDGTTYYDEPVKGRFTISRDKAQNTVYLQMDSLKPEDTAVYYCRSPRYADQWSAYDYWGQGTQVTVSS
Turning to B1, the binding result is “binds”.
